Results are given in words; binding and its absence hold for the method and conditions named. Some binding calls cover weakened binding; strength is not graded here. Where a sequence is shown, tags or fusion partners need not be part of it.
Columns and labels:
myostatin [1] = target: T1, myostatin (UniProt O14793); assay: ELISA of free myostatin after exposure to ECM with immobilized MI
T1 sequence (looked up): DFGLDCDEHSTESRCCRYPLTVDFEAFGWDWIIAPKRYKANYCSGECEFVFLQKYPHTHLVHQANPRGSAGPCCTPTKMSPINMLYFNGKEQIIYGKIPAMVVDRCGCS

myostatin [2] = target: T1, myostatin; assay: MI-D chain immobilized by FXIIIa on decellularized ECM, exposed to myostatin

binding (myostatin [1]): binds
binding (myostatin [2]): binds
Binder: VATQGQCTRWPWMCPPQGWGPLKPAKSA [myostatin inhibitor (MI) with TG tag (IGF-I D chain attached to the C-terminus of the MI)]
